Assay [1] deals with T1, HA-MARCH2 stably expressed in A549 cells (human) (UniProt Q9P0N8).
T1 sequence: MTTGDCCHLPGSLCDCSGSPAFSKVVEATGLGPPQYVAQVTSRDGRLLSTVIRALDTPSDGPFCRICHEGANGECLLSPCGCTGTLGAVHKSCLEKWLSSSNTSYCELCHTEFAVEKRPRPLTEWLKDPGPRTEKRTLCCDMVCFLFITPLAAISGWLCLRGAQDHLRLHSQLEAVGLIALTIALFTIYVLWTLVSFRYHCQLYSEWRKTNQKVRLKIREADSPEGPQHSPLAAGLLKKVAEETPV
In words: affinity purification with mass spectrometry; as a1, but cells not treated with TGF-β.

Amino acid sequences for entries named in this document (tags omitted). Residues count along the entry.
UniProt P36894, residues 24-532: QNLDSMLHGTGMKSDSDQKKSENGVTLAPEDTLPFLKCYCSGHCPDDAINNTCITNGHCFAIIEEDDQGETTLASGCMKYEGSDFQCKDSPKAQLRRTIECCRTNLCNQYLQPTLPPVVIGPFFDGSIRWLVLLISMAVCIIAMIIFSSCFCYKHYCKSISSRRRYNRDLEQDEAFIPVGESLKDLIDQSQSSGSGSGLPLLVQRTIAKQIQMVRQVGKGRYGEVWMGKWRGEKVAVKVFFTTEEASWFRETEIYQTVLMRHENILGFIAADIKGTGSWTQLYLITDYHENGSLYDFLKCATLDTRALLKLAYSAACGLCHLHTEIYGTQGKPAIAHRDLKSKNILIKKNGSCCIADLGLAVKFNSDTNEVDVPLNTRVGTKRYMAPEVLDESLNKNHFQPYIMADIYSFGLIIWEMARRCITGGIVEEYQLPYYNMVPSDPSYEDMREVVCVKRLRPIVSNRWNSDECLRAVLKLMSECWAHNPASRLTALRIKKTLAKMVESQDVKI
UniProt Q15075: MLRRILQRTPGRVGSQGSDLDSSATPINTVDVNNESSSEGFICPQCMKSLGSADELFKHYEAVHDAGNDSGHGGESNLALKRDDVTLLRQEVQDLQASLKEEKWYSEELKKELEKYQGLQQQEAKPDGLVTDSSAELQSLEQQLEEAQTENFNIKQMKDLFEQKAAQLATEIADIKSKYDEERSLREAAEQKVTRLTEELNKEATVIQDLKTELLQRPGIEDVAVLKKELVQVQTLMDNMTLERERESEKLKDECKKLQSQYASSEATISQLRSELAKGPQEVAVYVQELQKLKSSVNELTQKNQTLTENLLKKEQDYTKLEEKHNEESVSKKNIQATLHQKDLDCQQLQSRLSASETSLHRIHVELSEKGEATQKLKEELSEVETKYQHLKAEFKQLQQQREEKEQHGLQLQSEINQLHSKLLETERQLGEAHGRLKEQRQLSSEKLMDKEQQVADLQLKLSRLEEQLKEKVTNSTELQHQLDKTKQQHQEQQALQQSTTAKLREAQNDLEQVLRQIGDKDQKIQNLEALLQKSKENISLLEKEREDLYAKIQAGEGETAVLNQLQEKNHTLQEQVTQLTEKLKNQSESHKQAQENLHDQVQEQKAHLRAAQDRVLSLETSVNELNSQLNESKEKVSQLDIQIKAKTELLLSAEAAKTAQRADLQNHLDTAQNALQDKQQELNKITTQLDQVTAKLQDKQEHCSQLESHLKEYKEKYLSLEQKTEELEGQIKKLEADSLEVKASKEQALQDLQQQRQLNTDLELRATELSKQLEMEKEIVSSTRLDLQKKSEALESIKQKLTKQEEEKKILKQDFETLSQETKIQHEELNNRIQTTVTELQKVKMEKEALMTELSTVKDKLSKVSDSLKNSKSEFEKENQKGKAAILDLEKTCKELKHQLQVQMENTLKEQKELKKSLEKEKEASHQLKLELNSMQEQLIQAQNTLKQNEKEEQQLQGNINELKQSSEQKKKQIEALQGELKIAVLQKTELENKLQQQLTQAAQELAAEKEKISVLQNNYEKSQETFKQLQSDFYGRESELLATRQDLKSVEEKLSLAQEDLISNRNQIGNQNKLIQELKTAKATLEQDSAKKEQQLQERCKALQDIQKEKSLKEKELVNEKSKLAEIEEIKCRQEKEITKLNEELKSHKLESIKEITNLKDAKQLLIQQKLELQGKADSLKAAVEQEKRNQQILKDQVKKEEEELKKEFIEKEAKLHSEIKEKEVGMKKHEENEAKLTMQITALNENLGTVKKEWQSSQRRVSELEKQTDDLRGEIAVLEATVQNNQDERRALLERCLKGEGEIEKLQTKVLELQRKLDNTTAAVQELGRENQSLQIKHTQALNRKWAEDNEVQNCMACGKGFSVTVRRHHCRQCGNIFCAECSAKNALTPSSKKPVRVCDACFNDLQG
UniProt P63010: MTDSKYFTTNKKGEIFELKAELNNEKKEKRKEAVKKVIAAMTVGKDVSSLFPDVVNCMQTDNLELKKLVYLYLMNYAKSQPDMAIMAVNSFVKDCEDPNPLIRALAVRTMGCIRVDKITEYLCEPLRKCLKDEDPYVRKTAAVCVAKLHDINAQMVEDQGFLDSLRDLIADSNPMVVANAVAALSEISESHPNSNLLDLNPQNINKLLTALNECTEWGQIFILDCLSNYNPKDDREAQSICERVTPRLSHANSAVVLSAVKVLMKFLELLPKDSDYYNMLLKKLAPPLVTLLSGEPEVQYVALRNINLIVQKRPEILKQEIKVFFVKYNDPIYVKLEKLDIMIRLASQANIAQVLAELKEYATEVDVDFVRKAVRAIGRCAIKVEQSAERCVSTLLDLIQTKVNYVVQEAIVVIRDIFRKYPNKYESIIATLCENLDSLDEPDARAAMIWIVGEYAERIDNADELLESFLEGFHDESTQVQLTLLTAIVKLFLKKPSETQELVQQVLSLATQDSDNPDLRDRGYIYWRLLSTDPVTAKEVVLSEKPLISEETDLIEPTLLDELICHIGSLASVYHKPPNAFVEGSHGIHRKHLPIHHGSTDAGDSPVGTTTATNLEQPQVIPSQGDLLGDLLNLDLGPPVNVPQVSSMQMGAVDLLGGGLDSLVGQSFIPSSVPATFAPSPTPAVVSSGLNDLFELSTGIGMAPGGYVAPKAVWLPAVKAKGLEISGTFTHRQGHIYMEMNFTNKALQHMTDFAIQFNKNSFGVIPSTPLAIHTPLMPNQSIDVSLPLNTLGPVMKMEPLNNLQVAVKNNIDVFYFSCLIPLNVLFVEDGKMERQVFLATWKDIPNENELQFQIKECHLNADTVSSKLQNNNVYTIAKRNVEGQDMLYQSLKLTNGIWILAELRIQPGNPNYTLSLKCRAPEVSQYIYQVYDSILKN
UniProt P37173, residues 23-567: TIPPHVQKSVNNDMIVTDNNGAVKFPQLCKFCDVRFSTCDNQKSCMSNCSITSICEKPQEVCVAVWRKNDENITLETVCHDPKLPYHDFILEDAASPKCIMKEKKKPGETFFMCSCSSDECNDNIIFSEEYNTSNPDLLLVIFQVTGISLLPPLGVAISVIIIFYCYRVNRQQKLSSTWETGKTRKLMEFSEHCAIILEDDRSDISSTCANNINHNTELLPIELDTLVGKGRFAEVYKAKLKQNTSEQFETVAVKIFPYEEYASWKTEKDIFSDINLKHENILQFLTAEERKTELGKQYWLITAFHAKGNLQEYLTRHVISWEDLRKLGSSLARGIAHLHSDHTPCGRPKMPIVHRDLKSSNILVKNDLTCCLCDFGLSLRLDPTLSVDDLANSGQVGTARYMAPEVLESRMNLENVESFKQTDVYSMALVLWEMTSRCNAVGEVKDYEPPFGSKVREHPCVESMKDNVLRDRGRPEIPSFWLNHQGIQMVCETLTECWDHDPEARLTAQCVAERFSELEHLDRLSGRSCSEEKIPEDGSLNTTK

In assay [2] the target is T1, HA-MARCH2 stably expressed in A549 cells (human). Put plainly: affinity purification with mass spectrometry; HA-MARCH2-interacting proteins isolated from A549 cells stably expressing HA-MARCH2, TGF-β-treated; gel bands, in-gel trypsin digestion, LC-MS/MS.

These are yes or no findings as the source states them, for the method shown. Binding seen in cells or lysates may run through a third protein. Here binding means that the protein was enriched with, or labelled near, the bait; the list need not be complete. For some assays here: No binding means not detected with the bait. Tags and fused reporters may be left off the sequences shown.

With “BMP receptor type 1 A (from UniProt P36894 24-532)”, the binding entry in assay [1] is on record as “no binding (only cells without TGF-β treatment)”; in assay [2] it was “binds”.

EEA1 (from UniProt Q15075 1-1411): in assay [2], the binding entry is “binds”.

Turning to “β subunit of the AP-2 complex (from UniProt P63010 1-937)”, the binding result in assay [2] was “binds”.

Take “endogenous TGF-β type II receptor (from UniProt P37173 23-567)”: the binding entry in assay [1] is recorded as “no binding (only cells without TGF-β treatment)”; in assay [2] it was “binds”.

B1: endogenous ALK5 (receptor, UniProt P36897 34-503)
chain: LQCFCHLCTKDNFTCVTDGLCFVSVTETTDKVIHNSMCIAEIDLIPRDRPFVCAPSSKTGSVTTTYCCNQDHCNKIELPTTVKSSPGLGPVELAAVIAGPVCFVCISLMLMVYICHNRTVIHHRVPNEEDPSLDRPFISEGTTLKDLIYDMTTSGSGSGLPLLVQRTIARTIVLQESIGKGRFGEVWRGKWRGEEVAVKIFSSREERSWFREAEIYQTVMLRHENILGFIAADNKDNGTWTQLWLVSDYHEHGSLFDYLNRYTVTVEGMIKLALSTASGLAHLHMEIVGTQGKPAIAHRDLKSKNILVKKNGTCCIADLGLAVRHDSATDTIDIAPNHRVGTKRYMAPEVLDDSINMKHFESFKRADIYAMGLVFWEIARRCSIGGIHEDYQLPYYDLVPSDPSVEEMRKVVCEQKLRPNIPNRWQSCEALRVMAKIMRECWYANGAARLTALRIKKTLSQLSQQEGIKM
In the case of B1, the binding result is “no binding (only cells without TGF-β treatment)” in assay [1] and “binds” in assay [2].

(Values after article PMC12603192.)
